# PubChem BioAssay AID2283220 (EPA ToxCast)
# Chains of the proteins cited; added tags and fusions are not shown. Lines headed by an entry give the natural chain unless they say otherwise; changes in a name come on top.
# UniProt O00141: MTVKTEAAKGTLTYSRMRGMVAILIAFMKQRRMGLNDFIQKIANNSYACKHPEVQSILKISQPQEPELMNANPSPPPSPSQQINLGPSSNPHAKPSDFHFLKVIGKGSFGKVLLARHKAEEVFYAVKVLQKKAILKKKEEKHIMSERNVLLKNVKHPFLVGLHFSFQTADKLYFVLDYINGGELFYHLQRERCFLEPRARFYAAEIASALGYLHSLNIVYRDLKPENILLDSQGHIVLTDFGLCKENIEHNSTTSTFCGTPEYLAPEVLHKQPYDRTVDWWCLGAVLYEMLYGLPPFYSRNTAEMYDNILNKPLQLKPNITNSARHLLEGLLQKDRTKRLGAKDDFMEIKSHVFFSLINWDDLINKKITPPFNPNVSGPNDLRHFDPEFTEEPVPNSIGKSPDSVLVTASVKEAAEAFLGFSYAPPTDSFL
# Inconclusive means that the source gave no clear call. Such entries were picked first, then a sample of the others. A potency beside an inconclusive call is a rough fit, not a confirmed value. Activity calls are given as the source filed them. How the source made its calls: active means hit-call score of the fitted dose curve at least 0.9, where 1 is the maximum; inconclusive means response in the unintended direction; inactive means score below 0.9.
# Target: human Serum/Glucocorticoid Regulated Kinase 1 (SGK1), SGK1 (gene 6446) (UniProt O00141)
# Assay: NVS_ENZ_hSGK1: NovaScreen (NVS) Enzymatic Assay for human Serum/Glucocorticoid Regulated Kinase 1 (SGK1)
# Method: NVS_ENZ_hSGK1 is a biochemical, single-readout assay that uses extracted gene-proteins in a cell-free assay. Measurements were taken 1 hour after chemical dosing in a 96-well plate.NVS_ENZ_hSGK1 is one of one assay component(s) measured or calculated from the NVS_ENZ_hSGK1 assay. It is designed to make measurements of enzyme activity, a form of enzyme reporter, as detected with fluorescence intensity signals by Fluorescence and electrophoretic mobility shift technology.Data from the assay component NVS_ENZ_hSGK1 was analyzed into 1 assay endpoint. This assay endpoint, NVS_ENZ_hSGK1, was analyzed in the positive analysis fitting direction relative to DMSO as the negative control and baseline of activity. Using a type of enzyme reporter, loss-of-signal activity can be used to understand changes in the enzymatic activity as they relate to the gene SGK1. Furthermore, this assay endpoint can be referred to as a primary readout, because this assay has produced […] where this one serves a enzymatic activity function. To generalize the intended target to other relatable targets, this assay endpoint is annotated to the kinase intended target family, where the subfamily is serine/threonine kinase. […]
Compound,outcome,AC50
OC(c1ccc(Cl)cc1)(c1ccc(Cl)cc1)C(Cl)(Cl)Cl,inactive,
N#CSCSC#N,,inconclusive: 3.24 µM
